This is an account of results in patent US11142539B2, “Phosphinogold(I) complexes and methods of treating cancer” (King Fahd University of Petroleum and Minerals, priority 2020, dated 2021).

For this experiment, the system named is A549 (human lung carcinoma) cell line. In words: Cell Titer-Glo luminescence-based cell growth inhibition assay, A549. The note with it: A549 cells, 72 hours incubation, spread in brackets. As to the method:
The cell growth inhibition effects of gold(I) complexes 1-4 and cisplatin were measured by the Cell Titer-Glo® luminescence-based assay against the A549 (human lung carcinoma), HeLa (human cervical cancer), and HepG2 (human liver cancer) cell lines according to manufacturer's protocol. Briefly, the cell suspensions were added to each well of 384-w plate at a suitable density (total volume of 40 μL). The margin wells of plate were filled with PBS buffer. The gold(I) complexes were added at various concentrations in triplicate (10 μL solutions of the complex added to the plate), then the plate was incubated for 72 hours in 5% CO2 incubator at 37° C. After that the Cell Titer reagent was added to each tested well and stirred for 2 minutes on an orbital shaker. […] Luminescence signals were measured on PHERAstar Plus. […] The potential effect of the testing complexes on cell growth inhibition expressed as IC50 values was calculated by the formula below: Cell growth Inhibition %=100-100*(Luminescencecomplex)/(LuminescenceDMSO) Cell viability %=100*(Luminescencecomplex)/(LuminescenceDMSO)
The gold(I) complexes 1-4 and cisplatin were examined for their cell growth inhibition effects against A549, HeLa, and HepG2 human cancer cell lines using Cell Titer-Glo® luminescence-based assay. […]

Take `N.N.[Cl][Pt][Cl]` [Cisplatin, cisplatin]: the IC50 (in general, the concentration that gives 50% inhibition) was 13.8 µM.
